Measurements as given in the supplement of paper PMC4604168 (melanoma cell lines).
This is one part of the list. Repeats are few or missing, and single values can be far off.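 Cells were imaged in 1,536-well plates, and nuclei stained with an antibody against cleaved PARP were counted against all DNA-stained nuclei to give the apoptosis fraction. Screening doses were chosen to leave most cells alive, and resting and induced cleaved-PARP levels differ strongly between cell lines.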

system: A101D; assay: cleaved PARP positive nuclei fraction relative to DMSO control; melanoma cells; higher = more apoptosis; settings: library dose: low library concentration; 72 h

SMILES	cleaved PARP positive nuclei fraction [%]
C[C@@H](N)c1ccc(C(=O)Nc2ccnc3[nH]ccc23)cc1 + CC(C)C[C@H](NC(=O)[C@H](Cc1ccccc1)NC(=O)c1cnccn1)B(O)O [Bortezomib] (first compound 0.4 µM, partner dose 0.001 µM)	306
C[C@]1(O)C[C@@H](c2nc(-c3ccc4ccc(-c5ccccc5)nc4c3)c3c(N)nccn32)C1 + CS(=O)(=O)CCNCc1ccc(-c2ccc3ncnc(Nc4ccc(OCc5cccc(F)c5)c(Cl)c4)c3c2)o1 [lapatinib] (first compound 0.4 µM, partner dose 0.8 µM)	244
Cn1sc(=O)n(Cc2ccccc2)c1=O + CNC(=O)c1cc(Oc2ccc(NC(=O)Nc3ccc(Cl)c(C(F)(F)F)c3)cc2)ccn1 [sorafenib] (first compound 0.4 µM, partner dose 0.4 µM)	87.7
CN(c1ncccc1CNc1nc(Nc2ccc3c(c2)CC(=O)N3)ncc1C(F)(F)F)S(C)(=O)=O + CS(=O)(=O)CCNCc1ccc(-c2ccc3ncnc(Nc4ccc(OCc5cccc(F)c5)c(Cl)c4)c3c2)o1 [lapatinib] (first compound 0.08 µM, partner dose 0.8 µM)	27.1
CCCCCCCCc1ccc(CCC(N)(CO)CO)cc1 [fingolimod] + CC(=O)O[C@@]12CO[C@@H]1C[C@H](O)[C@@]1(C)C(=O)[C@H](O)C3=C(C)[C@@H](OC(=O)[C@H](O)[C@@H](NC(=O)OC(C)(C)C)c4ccccc4)C[C@@](O)([C@@H](OC(=O)c4ccccc4)[C@H]21)C3(C)C [Docetaxel] (first compound 2 µM, partner dose 0.0001 µM)	122
CCCCCCCCc1ccc(CCC(N)(CO)CO)cc1 [fingolimod] + COCC[n+]1c2c(n(Cc3cnccn3)c1C)C(=O)c1ccccc1C2=O [YM155] (first compound 2 µM, partner dose 0.0004 µM)	123
NC1(c2ccc(-c3nc4ccn5c(=O)[nH]nc5c4cc3-c3ccccc3)cc2)CCC1 + C[C@@H](Oc1cc(-c2cnn(C3CCNCC3)c2)cnc1N)c1c(Cl)ccc(F)c1Cl [Crizotinib] (first compound 0.4 µM, partner dose 0.2 µM)	160
C[C@]1(O)C[C@@H](c2nc(-c3ccc4ccc(-c5ccccc5)nc4c3)c3c(N)nccn32)C1 + Cc1cc(Nc2cc(N3CCN(C)CC3)nc(/C=C/c3ccccc3)n2)n[nH]1 [ENMD2076] (first compound 0.4 µM, partner dose 0.04 µM)	165
Cn1sc(=O)n(Cc2ccccc2)c1=O + C[C@@H](Oc1cc(-c2cnn(C3CCNCC3)c2)cnc1N)c1c(Cl)ccc(F)c1Cl [Crizotinib] (first compound 0.4 µM, partner dose 0.2 µM)	177
NC(=O)c1ccc(N(C(N)=O)c2c(F)cccc2F)nc1-c1ccc(F)cc1F + CCCCCCCCc1ccc(CCC(N)(CO)CO)cc1 [fingolimod] (first compound 0.4 µM, partner dose 2 µM)	157
NC1(c2ccc(-c3nc4ccn5c(=O)[nH]nc5c4cc3-c3ccccc3)cc2)CCC1 + CO[C@H]1C[C@@H]2CC[C@@H](C)[C@@](O)(O2)C(=O)C(=O)N2CCCC[C@H]2C(=O)O[C@H]([C@H](C)C[C@@H]2CC[C@@H](OCCO)[C@H](OC)C2)CC(=O)[C@H](C)/C=C(\C)[C@@H](O)[C@@H](OC)C(=O)[C@H](C)C[C@H](C)/C=C/C=C/C=C/1C [everolimus] (first compound 0.4 µM, partner dose 0.02 µM)	64.6

system: A2058; assay: as above; settings: library dose: low library concentration; 72 h

SMILES	cleaved PARP positive nuclei fraction [%]
CS(=O)(=O)c1ccc(C(=O)Nc2ccc(Cl)c(-c3ccccn3)c2)c(Cl)c1 [vismodegib] + OCc1c[nH]c2ccccc12 [Indole-3-carbinol] (first compound 1 µM, partner dose 0.8 µM)	114
COc1ccc(C2=N[C@@H](c3ccc(Cl)cc3)[C@@H](c3ccc(Cl)cc3)N2C(=O)N2CCNC(=O)C2)c(OC(C)C)c1 [Nutlin-3] + NC1(c2ccc(-c3nc4ccn5c(=O)[nH]nc5c4cc3-c3ccccc3)cc2)CCC1 [MK2206] (first compound 0.1 µM, partner dose 0.4 µM)	40.7
COc1ccc(C2=N[C@@H](c3ccc(Cl)cc3)[C@@H](c3ccc(Cl)cc3)N2C(=O)N2CCNC(=O)C2)c(OC(C)C)c1 [Nutlin-3] + Clc1ccc(Nc2nnc(Cc3ccncc3)c3ccccc23)cc1 [vatalanib] (first compound 0.1 µM, partner dose 2 µM)	146
Cn1sc(=O)n(Cc2ccccc2)c1=O + CN(c1ncccc1CNc1nc(Nc2ccc3c(c2)CC(=O)N3)ncc1C(F)(F)F)S(C)(=O)=O [PF562271] (first compound 0.4 µM, partner dose 0.08 µM)	133
Cn1cnc2c(F)c(Nc3ccc(Br)cc3Cl)c(C(=O)NOCCO)cc21 [selumetinib] + CNC(=O)c1cc(Oc2ccc(NC(=O)Nc3ccc(Cl)c(C(F)(F)F)c3)cc2)ccn1 [sorafenib] (first compound 0.015 µM, partner dose 0.4 µM)	94.6
NC1(c2ccc(-c3nc4ccn5c(=O)[nH]nc5c4cc3-c3ccccc3)cc2)CCC1 + CCCS(=O)(=O)Nc1ccc(F)c(C(=O)c2c[nH]c3ncc(Cl)cc23)c1F [PLX4720] (first compound 0.4 µM, partner dose 0.08 µM)	188
NC(=O)c1ccc(N(C(N)=O)c2c(F)cccc2F)nc1-c1ccc(F)cc1F + C#Cc1cccc(Nc2ncnc3cc(OCCOC)c(OCCOC)cc23)c1 [erlotinib] (first compound 0.4 µM, partner dose 0.8 µM)	148
C[C@@H](N)c1ccc(C(=O)Nc2ccnc3[nH]ccc23)cc1 + Cn1sc(=O)n(Cc2ccccc2)c1=O [TDZD-8] (first compound 0.4 µM, partner dose 0.4 µM)	113
CS(=O)(=O)c1ccc(C(=O)Nc2ccc(Cl)c(-c3ccccn3)c2)c(Cl)c1 [vismodegib] + CCCCCCCCc1ccc(CCC(N)(CO)CO)cc1 [fingolimod] (first compound 1 µM, partner dose 2 µM)	74.3
Cn1cnc2c(F)c(Nc3ccc(Br)cc3Cl)c(C(=O)NOCCO)cc21 [selumetinib] + C#Cc1cccc(Nc2ncnc3cc(OCCOC)c(OCCOC)cc23)c1 [erlotinib] (first compound 0.015 µM, partner dose 0.8 µM)	150
CC1(C)CCC(c2ccc(Cl)cc2)=C(CN2CCN(c3ccc(C(=O)NS(=O)(=O)c4ccc(N[C@H](CCN5CCOCC5)CSc5ccccc5)c(S(=O)(=O)C(F)(F)F)c4)cc3)CC2)C1 + CS(=O)(=O)CCNCc1ccc(-c2ccc3ncnc(Nc4ccc(OCc5cccc(F)c5)c(Cl)c4)c3c2)o1 [lapatinib] (first compound 0.4 µM, partner dose 0.8 µM)	207
CC1(C)CCC(c2ccc(Cl)cc2)=C(CN2CCN(c3ccc(C(=O)NS(=O)(=O)c4ccc(N[C@H](CCN5CCOCC5)CSc5ccccc5)c(S(=O)(=O)C(F)(F)F)c4)cc3)CC2)C1 + O=C(O)[C@@H]1[O][Sb](=[O])([O][Sb]2(=[O])[O][C@H]([C@H](O)CO)[C@H](O)[C@H](C(=O)O)[O]2)[O][C@H]([C@H](O)CO)[C@@H]1O [stibogluconate] (first compound 0.4 µM, partner dose 2 µM)	129
CC1(C)CCC(c2ccc(Cl)cc2)=C(CN2CCN(c3ccc(C(=O)NS(=O)(=O)c4ccc(N[C@H](CCN5CCOCC5)CSc5ccccc5)c(S(=O)(=O)C(F)(F)F)c4)cc3)CC2)C1 + Nc1ccn([C@@H]2O[C@H](CO)[C@@H](O)C2(F)F)c(=O)n1 [gemcitabine] (first compound 0.4 µM, partner dose 0.0004 µM)	168
C[C@]1(O)C[C@@H](c2nc(-c3ccc4ccc(-c5ccccc5)nc4c3)c3c(N)nccn32)C1 + CC(=O)O[C@@]12CO[C@@H]1C[C@H](O)[C@@]1(C)C(=O)[C@H](O)C3=C(C)[C@@H](OC(=O)[C@H](O)[C@@H](NC(=O)OC(C)(C)C)c4ccccc4)C[C@@](O)([C@@H](OC(=O)c4ccccc4)[C@H]21)C3(C)C [Docetaxel] (first compound 0.4 µM, partner dose 0.0001 µM)	7670
CC1(C)CCC(c2ccc(Cl)cc2)=C(CN2CCN(c3ccc(C(=O)NS(=O)(=O)c4ccc(N[C@H](CCN5CCOCC5)CSc5ccccc5)c(S(=O)(=O)C(F)(F)F)c4)cc3)CC2)C1 + Cn1sc(=O)n(Cc2ccccc2)c1=O [TDZD-8] (first compound 0.4 µM, partner dose 0.4 µM)	127
C[C@]1(O)C[C@@H](c2nc(-c3ccc4ccc(-c5ccccc5)nc4c3)c3c(N)nccn32)C1 + OCc1c[nH]c2ccccc12 [Indole-3-carbinol] (first compound 0.4 µM, partner dose 0.8 µM)	81.7
CN(c1ncccc1CNc1nc(Nc2ccc3c(c2)CC(=O)N3)ncc1C(F)(F)F)S(C)(=O)=O + C[C@]1(c2nc3c(C(N)=O)cccc3[nH]2)CCCN1 [Veliparib] (first compound 0.08 µM, partner dose 1.4 µM)	212
C[C@]1(O)C[C@@H](c2nc(-c3ccc4ccc(-c5ccccc5)nc4c3)c3c(N)nccn32)C1 + CCCS(=O)(=O)Nc1ccc(F)c(C(=O)c2c[nH]c3ncc(Cl)cc23)c1F [PLX4720] (first compound 0.4 µM, partner dose 0.08 µM)	122

Some of the entries above, set out differently.
SMILES | cleaved PARP positive nuclei fraction [%]
CC1(C)CCC(c2ccc(Cl)cc2)=C(CN2CCN(c3ccc(C(=O)NS(=O)(=O)c4ccc(N[C@H](CCN5CCOCC5)CSc5ccccc5)c(S(=O)(=O)C(F)(F)F)c4)cc3)CC2)C1 + O=C(O)[C@@H]1[O][Sb](=[O])([O][Sb]2(=[O])[O][C@H]([C@H](O)CO)[C@H](O)[C@H](C(=O)O)[O]2)[O][C@H]([C@H](O)CO)[C@@H]1O [stibogluconate] (first compound 0.4 µM, partner dose 2 µM) | 129
CC1(C)CCC(c2ccc(Cl)cc2)=C(CN2CCN(c3ccc(C(=O)NS(=O)(=O)c4ccc(N[C@H](CCN5CCOCC5)CSc5ccccc5)c(S(=O)(=O)C(F)(F)F)c4)cc3)CC2)C1 + Nc1ccn([C@@H]2O[C@H](CO)[C@@H](O)C2(F)F)c(=O)n1 [gemcitabine] (first compound 0.4 µM, partner dose 0.0004 µM) | 168
